Laboratory results published in the supplement of paper PMC10735217.
Structures can show the parent of a compound that is named as a salt. The list shows a part of the results. This data set is noisy: repeats of one test often differ as much as different tests do.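 Human kidney-derived cells stably carry a construct in which eight TEAD-binding elements drive luciferase, measured by luminescence in a drug-repurposing library screen. A hit is any compound whose signal exceeds the plate mean by more than five robust Z scores.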

Tested on: HEK293A TEAD-LUC reporter
Experiment: TEAD-luciferase reporter activity (YAP activation), robust Z score vs plate; higher = stronger YAP/TEAD activation
Settings: 24 h

SMILES | TEAD-luciferase reporter activity (compound concentration: 200 nM) | TEAD-luciferase reporter activity (compound concentration: 10 uM) | TEAD-luciferase reporter activity (compound concentration: 2 uM)
O=C(NCc1ccc2c(c1)OCO2)C1CN(C2CCCCC2)C(=O)N1 (stereo not drawn) | inactive: 0.94 | active: 10.8 | 
OCCN(CCO)c1nc(N2CCCCC2)c2nc(N(CCO)CCO)nc(N3CCCCC3)c2n1 | inactive: -0.254 | inactive: -0.157 | 
OCCN(CCO)c1nc(N2CCCCC2)c2nc(N(CCO)CCO)nc(N3CCCCC3)c2n1 [Dipyridamole] |  |  | inactive: -1.54
COc1cc(F)ccc1-c1cc(Nc2cc(CS(C)(=N)=O)ccn2)ncc1F (single isomer, unassigned; (+)) | inactive: -0.253 | inactive: -1.45 | inactive: -2.58
C[C@H](NC(=O)c1ccccc1)C(=O)Nc1ccc(C2S/C(=N\c3cccc(F)c3)N(Cc3ccco3)C2=O)cc1 (stereo partly drawn) | inactive: 0.133 | inactive: -0.656 | inactive: -0.478
CC(C)(CO)[C@@H](O)C(=O)NCCC(=O)O | inactive: -1.07 | inactive: 3.21 | inactive: -0.659
CCOC(=O)C(Cc1ccc(-c2c(C)n(C)c(=O)n(C)c2=O)cc1)NC(=O)c1c(F)cccc1F (stereo not drawn) | inactive: -1.14 | inactive: 3.71 | inactive: -1.28
CC(C)CNc1nc(=O)c2cnn3c2n1CC=C3c1cccc(C(F)(F)F)c1 | inactive: -0.894 | inactive: -0.623 | inactive: 1.2
CC(C)(Cc1c[nH]c2ccccc12)NCC(O)COc1ccccc1C#N (stereo not drawn) [Bucindolol] | inactive: -1.29 | inactive: 1.51 | inactive: 0.0339
Cc1cc2ncc(C(=O)NCC3CC3)cn2n1 | inactive: -1.61 | inactive: 1.24 | 
CCN(CC)CCCN(c1ccccc1)C1Cc2ccccc2C1OC (stereo not drawn) [Moxaprindine] | inactive: -1.55 | inactive: 1.49 | inactive: 0.0534
CN(C(=O)CN(C(=O)CNC(=O)Nc1cccc(CC(=O)O)c1)c1ccccc1)c1ccccc1 | inactive: -1.24 | inactive: -0.446 | inactive: -0.568
COCc1c[n+]([O-])c(C)cn1 | inactive: -1.39 | inactive: -2.04 | inactive: -0.107
COC(=O)Nc1c(N)nc(-c2nn(Cc3ccccc3F)c3ncccc23)nc1N | inactive: -1.72 | inactive: 2.22 | inactive: 1.22
CCn1cc(C(=O)O)c(=O)c2cc(F)c(-n3cccc3)cc21 [Irloxacin] | inactive: -0.97 | inactive: 0.698 | inactive: -2.03
CC(=O)N1CCN(C(=O)c2cnc3cc(C)nn3c2)CC1 | inactive: -1.63 | inactive: -1.02 | 
C[C@H]1CC(=N)N[C@@H]2[C@H](Cl)[C@@H]21 | inactive: -0.868 | inactive: -1.83 | inactive: -0.0603
O=C(NO)c1cccnc1 [Heparit] | inactive: -0.69 | inactive: -0.185 | inactive: -0.908
CNC1C(O)C(OC2C(N)CC(N)C(OC3OC([C@H](C)N)CCC3N)C2O)OCC1(C)O (stereo partly drawn) | inactive: -1.2 | inactive: -0.922 | 
FC(F)(F)C(F)(F)C(F)(F)C(F)(F)C(F)(F)C(F)(F)F [perflexane] | inactive: 3.87 | inactive: 0.166 | inactive: 1.4

SMILES | TEAD-luciferase reporter activity (compound concentration: 200 nM) | TEAD-luciferase reporter activity (compound concentration: 10 uM) | TEAD-luciferase reporter activity (compound concentration: 2 uM)
Cc1nc(C(=O)N2CCOC3(CCN(CCc4ccc(CCOCCC(=O)N(CCNCCc5ccc(O)c6c5OCC(=O)N6)C5CCCCCC5)cc4)CC3)C2)cs1 | inactive: 0.0931 | inactive: -0.544 | inactive: 0.0358
NC(=O)OC[C@@H]1[C@H](NC(=O)/C(=N\OCC(=O)[O-])c2csc(N)n2)C(=O)N1S(=O)(=O)[O-] [Carumonam disodium salt] | active: 6.66 | inactive: 4.33 | 
NC(=O)OC[C@@H]1[C@H](NC(=O)/C(=N\OCC(=O)[O-])c2csc(N)n2)C(=O)N1S(=O)(=O)[O-] [carumonam] |  |  | inactive: -0.324
O=C1COCC2=C1C(c1ccc(F)c(I)c1)C1=C(COCC1=O)N2 | inactive: -0.67 | inactive: 2.63 | inactive: -1.12
CCCCc1nc2ccc(NC(=O)NC3CCCCC3)cc2n1Cc1ccc(-c2ccccc2C(=O)O)cc1 | inactive: -2.68 | inactive: 0.763 | inactive: 0.725
Nc1nc(=O)n([C@H]2CC[C@@H](CO)O2)cc1F | inactive: -0.443 | inactive: -1.56 | inactive: -1.7
CCOC(=O)[C@H](CCc1ccccc1)N[C@H]1CCCN2CCC[C@@H](C(=O)O)N2C1=O [cilazapril] | inactive: -0.331 | inactive: 0.427 | inactive: 0.128
O=c1oc2cc(O)ccc2c(Cc2ccc(OCCN3CCCCC3)cc2)c1-c1ccccc1 | inactive: -1.59 | inactive: 0.171 | inactive: -0.925
Cc1cc2c(F)c(Oc3ncnn4cc(OC[C@@H](C)O)c(C)c34)ccc2[nH]1 [Brivanib] | inactive: -1.44 | inactive: -1.25 | inactive: -2.43
O=C(O)CNC(=O)C(CS)Cc1ccccc1 (stereo not drawn) [thiorphan] |  |  | inactive: 0.63
O=C(O)CNC(=O)C(CS)Cc1ccccc1 (stereo not drawn) | inactive: -0.396 | inactive: -1.06 | 
CC1(C)OC(=O)NC1=O [5,5-Dimethyloxazolidine-2,4-dione] | inactive: 0.203 | inactive: 2.98 | 
CC1(C)OC(=O)NC1=O |  |  | inactive: -0.777
CCC(C)NCC(O)COc1ccccc1C(C)CC (stereo not drawn) | inactive: -1.96 | inactive: -0.0223 | inactive: -0.17
Cc1ccc(C(=O)OCCn2ccnc2)cc1 | inactive: 0.627 | inactive: -0.661 | inactive: 1.14
COc1ccc(/C=C/C(=O)Nc2cccc3ccccc23)cc1OC | inactive: -0.105 | inactive: 0.7 | inactive: -1.11
NS(=O)(=O)c1ccc(NCc2ccccc2)cc1 | inactive: -1.23 | inactive: 0.95 | inactive: -0.715
CC(CO)(CO)NCc1cc2c3ccccc3ccc2c2ccccc12 | inactive: -0.288 | inactive: 1.04 | inactive: -0.31
CC(C)(C)c1ccc(S(=O)(=O)Nc2ccc(Cl)cc2C(=O)c2cc[n+]([O-])cc2)cc1 [Vercirnon sodium] | inactive: -1.08 | inactive: -0.722 | inactive: -1.44
CN1Cc2c(Cl)cc(Cl)cc2C(c2cccc(S(=O)(=O)NCCOCCOCCNC(=O)NCCCCNC(=O)NCCOCCOCCNS(=O)(=O)c3cccc(C4CN(C)Cc5c(Cl)cc(Cl)cc54)c3)c2)C1 (stereo not drawn) [Tenapanor] | inactive: -1.9 | inactive: -0.577 | inactive: -0.212

SMILES | TEAD-luciferase reporter activity (compound concentration: 200 nM) | TEAD-luciferase reporter activity (compound concentration: 10 uM) | TEAD-luciferase reporter activity (compound concentration: 2 uM)
FC(F)(F)C(Cl)Br (stereo not drawn) | inactive: -0.546 | inactive: -0.363 | 
FC(F)(F)C(Cl)Br (stereo not drawn) [Halothane] |  |  | inactive: -0.4
CC1(C)SC2C(NC(=O)C(N)c3ccccc3)C(=O)N2C1C(=O)O (stereo not drawn) [ampicillin benzathine] | inactive: -0.832 | inactive: -1.14 | inactive: -0.696
COc1cc(C(=O)C(=O)N2CCCC[C@H]2C(=O)OC(CCCc2ccccc2)CCCc2cccnc2)cc(OC)c1OC (stereo partly drawn) | inactive: -0.535 | inactive: -1.47 | inactive: -0.321
CC(C(=O)O)c1ccc(C(=O)c2ccco2)cc1 (stereo not drawn) [Furprofen] | inactive: -1.66 | inactive: -0.434 | inactive: -2.1
Oc1cccc(Nc2ncc(F)c(Nc3cccc(O)c3)n2)c1 | inactive: -1.29 | inactive: -0.508 | inactive: -2.16
CCCc1c2c(cc3c(=O)cc(C(=O)OCC)oc13)CCCC2 | inactive: -1.91 | inactive: 0.794 | inactive: -1.23
[N-]=[N+]=N[C@]1(CO)O[C@@H](n2ccc(N)nc2=O)[C@@H](F)[C@@H]1O [Azvudine] | inactive: 0.63 | inactive: -0.591 | inactive: -0.885
CC(C)Cn1cnc2c1c(=O)n(C)c(=O)n2C [Isbufylline] | inactive: 4.16 | inactive: 2.97 | inactive: 0.807
Cc1[nH]c(=O)c(C#N)cc1-c1ccc2c(n1)N(C)C(=O)CO2 | inactive: -1.27 | active: 5.84 | inactive: -0.626
Cc1ccc(C(=O)N2CCC(n3c(=O)[nH]c4ccccc43)CC2)cc1 | inactive: -0.39 | inactive: 1.07 | 
CC(C)(Sc1cc(C(C)(C)C)c(O)c(C(C)(C)C)c1)Sc1cc(C(C)(C)C)c(OCCCC(=O)O)c(C(C)(C)C)c1 | inactive: -1.24 | inactive: 0.88 | inactive: 0.504
CCCCCCCCCC(=O)OC[C@H]1O[C@H](O[C@H]2O[C@H](COC(=O)CCCCCCCCC)[C@@H](O)[C@H](O)[C@H]2O)[C@H](O)[C@@H](O)[C@@H]1O | inactive: -0.395 | inactive: -0.303 | inactive: -0.122
CSc1nc2cc(Cl)c(Oc3cccc(Cl)c3Cl)cc2[nH]1 [triclabendazole] |  |  | inactive: -1.41
Cc1cc2nc3c(=O)[nH]c(=O)nc-3n(C[C@@H](O)[C@@H](O)[C@@H](O)CO)c2cc1C [riboflavin (0.1%)] |  |  | inactive: -1.59
Cc1cc2nc3c(=O)[nH]c(=O)nc-3n(C[C@@H](O)[C@@H](O)[C@@H](O)CO)c2cc1C [riboflavin (0.1%), Avedro] | inactive: -3.18 | inactive: -1.3 | 
CCN1CCCC12Cc1ccccc1CN(C(C)=O)C2 (stereo not drawn) | inactive: -1.04 | inactive: 0.513 | 
CCCCCCOC(=O)CCC(=O)CN [Aminolevulinic acid hexyl ester] | inactive: 0.662 | inactive: -0.784 | inactive: -0.508

A run of entries from further up, as a working copy:
SMILES | TEAD-luciferase reporter activity (compound concentration: 200 nM) | TEAD-luciferase reporter activity (compound concentration: 10 uM) | TEAD-luciferase reporter activity (compound concentration: 2 uM)
CCOC(=O)[C@H](CCc1ccccc1)N[C@H]1CCCN2CCC[C@@H](C(=O)O)N2C1=O [cilazapril] | inactive: -0.331 | inactive: 0.427 | inactive: 0.128
O=c1oc2cc(O)ccc2c(Cc2ccc(OCCN3CCCCC3)cc2)c1-c1ccccc1 | inactive: -1.59 | inactive: 0.171 | inactive: -0.925
Cc1cc2c(F)c(Oc3ncnn4cc(OC[C@@H](C)O)c(C)c34)ccc2[nH]1 [Brivanib] | inactive: -1.44 | inactive: -1.25 | inactive: -2.43
O=C(O)CNC(=O)C(CS)Cc1ccccc1 (stereo not drawn) [thiorphan] |  |  | inactive: 0.63
